# Reference: US11083198B2, “4H-pyrrolopyridine compound or salt thereof, agricultural and horticultural insecticide comprising the compound or the salt, and method for using the insecticide” (Nihon Nohyaku Co., Ltd., priority 2016, dated 2021)
# Some entries share one result that the patent states for a list of compounds.
# Test system: Myzus persicae
# Assay: Test for Control Efficacy on Myzus persicae
# Assay type: in vivo
# Conditions: 500 ppm, foliar application to potted Chinese cabbage plants, 6 days after the foliar application
row,Compound,control efficacy (control rate)
1,"CCn1cc(C(F)(F)F)cc2nc(-c3nc4cc(Br)ccc4cc3S(=O)(=O)CC)c(F)c1-2 [Compound 2-76, 2-(7-bromo-3-ethylsulfonyl-quinolin-2-yl)-3-fluoro-4-ethyl-6-trifluoromethyl-4H-pyrrolo[3,2-b]pyridine]",A (the control rate is 100%)
2,"CCS(=O)(=O)c1c(-c2nc3cc(C(F)(F)F)cn(C)c-3c2F)nc2cc(C(F)(F)F)ccn12 [Compound 3-14, 2-(3-ethylsulfonyl-7-(trifluoromethyl)imidazo[1,2-a]pyridin-2-yl)-3-fluoro-4-methyl-6-(trifluoromethyl)-4H-pyrrolo[3,2-b]pyridine]",A (the control rate is 100%)
3,"CCn1cc(C(F)(F)F)cc2nc(-c3ncc(-c4cccc(C(F)(F)F)c4)cc3S(=O)(=O)CC)c(F)c1-2 [Compound 1-16, 2-(5-(3-trifluoromethylphenyl)-3-ethylsulfonyl-pyridin-2-yl)-3-fluoro-4-ethyl-6-trifluoromethyl-4H-pyrrolo[3,2-b]pyridine]",A (the control rate is 100%)
4,"CCn1cc(C(F)(F)F)cc2nc(-c3nc4cc(Br)ccc4cc3S(=O)(=O)CC)c(Cl)c1-2 [Compound 2-52, 2-(7-bromo-3-ethylsulfonyl-quinolin-2-yl)-3-chloro-4-ethyl-6-trifluoromethyl-4H-pyrrolo[3,2-b]pyridine]",A (the control rate is 100%)
5,"CCS(=O)(=O)c1cc(-c2cccc(C(F)(F)F)c2)cnc1-c1nc2cc(C(F)(F)F)cn(C)c-2c1Cl [Compound 1-13, 2-(5-(3-trifluoromethylphenyl)-3-ethylsulfonyl-pyridin-2-yl)-3-chloro-4-methyl-6-trifluoromethyl-4H-pyrrolo[3,2-b]pyridine]",A (the control rate is 100%)
